Test system: HPA axis hormones
Test: HPA axis endocrinology (plasma or serum hormones) in clinical trials
Format: in vivo, human

O=C(c1csc(-c2cn[nH]c2)c1)N1C2CCC1CC(O)(c1ncccn1)C2 (centres unmarked) [emestedastat, (5‐(1H‐Pyrazol‐4‐yl)thiophen‐3‐yl)(3‐hydroxy‐3‐(pyrimidin‐2‐yl)‐8 azabicyclo[3.2.1]octan‐8‐yl) methanone]
plasma cortisol change from baseline, difference between treatments (XanADu trial, 10 mg daily vs placebo, weeks 4, 8, 12, P = .216): no differences
ACTH change from baseline across trials (end of treatment, MAD, XanADu, XanaMIA‐DR, no dose‐response): approximately doubled from baseline

Reference: PMC11788964, “Clinical Pharmacology and Approach to Dose Selection of Emestedastat, a Novel Tissue Cortisol Synthesis Inhibitor for the Treatment of Central Nervous System Disease” (Clinical Pharmacology in Drug Development, 2025)
